System: HEK293 cells
Assay: Measurement of receptor protein level on cell membrane (flow cytometry), receptor gene co-transfected with RTP1S
Type: cell-based, human
Details: for change in membrane expression level by the consensus design method: consensus receptor compared with original receptor, HEK293 cells, average values of three experiments; for Original Membrane expression level (%): original receptor on HEK293 cells, PE signal normalised, NC (no receptor) 0%, PC (FLAG-M2 acetylcholine receptor) 100%, average of three experiments

| Molecule | change in membrane expression level by the consensus design method | Original Membrane expression level (%) |
| --- | --- | --- |
| VN1R1: original human vomeronasal receptor VN1R1 (protein, listed as Homo sapiens) MVGDTLKLLSPLMTRYFFLLFYSTDSSDLNENQHPLDFDEMAFGKVKSGISFLIQTGVGILGNSFLLCFYNLILFTGHKLRPTDLILSQLALANSMVLFFKGIPQTMAAFGLKYLLNDTGCKFVFYYHRVGTRVSLSTICLLNGFQAIKLNPSICRWMEIKIRSPRFIDFCCLLCWAPHVLMNASVLLLVNGPLNSKNSSAKNNYGYCSYKASKRFSSLHAVLYFSPDFMSLGFMVWASGSMVFFLYRHKQQVQHNHSNRLSCRPSQEARATHTIMVLVSSFFVFYSVHSFLTIWTTVVANPGQWIVTNSVLVASCFPARSPFVLIMSDTHISQFCFACRTRKTLFPNLVVMP | increase | −0.05 |
| GPR171: original human GPR171 (protein, listed as Homo sapiens) MTNSSFFCPVYKDLEPFTYFFYLVFLVGIIGSCFATWAFIQKNTNHRCVSIYLINLLTADFLLTLALPVKIVVDLGVAPWKLKIFHCQVTACLIYINMYLSIIFLAFVSIDRCLQLTHSCKIYRIQEPGFAKMISTVVWLMVLLIMVPNMMIPIKDIKEKSNVGCMEFKKEFGRNWHLLTNFICVAIFLNFSAIILISNCLVIRQLYRNKDNENYPNVKKALINILLVTTGYIICFVPYHIVRIPYTLSQTEVITDCSTRISLFKAKEATLLLAVSNLCFDPILYYHLSKAFRSKVTETFASPKETKAQKEKLRCENNA | increase | 91.17 |
| VN1R2: original human vomeronasal receptor VN1R2 (protein, listed as Homo sapiens) MTHTLYPTPFALYPINISAAWHLGPLPVSCFVSNKYQCSLAFGATTGLRVLVVVVPQTQLSFLSSLCLVSLFLHSLVSAHGEKPTKPVGLDPTLFQVVVGILGNFSLLYYYMFLYFRGYKPRSTDLILRHLTVADSLVILSKRIPETMATFGLKHFDNYFGCKFLLYAHRVGRGVSIGSTCLLSVFQVITINPRNSRWAEMKVKAPTYIGLSNILCWAFHMLVNAIFPIYTTGKWSNNNITKKGDLGYCSAPLSDEVTKSVYAALTSFHDVLCLGLMLWASSSIVLVLYRHKQQVQHICRNNLYPNSSPGNRAIQSILALVSTFALCYALSFITYVYLALFDNSSWWLVNTAALIIACFPTISPFVLMCRDPSRSRLCSICCRRNRRFFHDFRKM | increase | −0.05 |
| VN1R5: original human vomeronasal receptor VN1R5 (protein, listed as Homo sapiens) MLKLVIIENMAEIMLFSLDLLLFSTDILCFNFPSKMIKLPGFITIQIFFYPQASFGISANTILLLFHIFTFVFSHRSKSIDMIISHLSLIHILLLFTQAILVSLDFFGSQNTQDDLRYKVIVFLNKVMRGLSICTPCLLSVLQAIISPSIFSLAKLKHPSASHILGFFLFSWVLNMFIGVIFCCTLRLPPVKRGQSSVCHTALFLFAHELHPQETVFHTNDFEGCHLYRVHGPLKRLHGDYFIQTIRGYLSAFTQPACPRVSPVKRASQAILLLVSFVFTYWVDFTFSFSGGVTWINDSLLVWLQVIVANSYAAISPLMLIYADNQIFKTLQMLWFKYLSPPKLMLKFNRQCGSTKK | increase | 0.18 |
| VN1R4: original human vomeronasal receptor VN1R4 (protein, listed as Homo sapiens) MASRYVAVGMILSQTVVGVLGSFSVLLHYLSFYCTGCRLRSTDLIVKHLIVANFLALRCKGVPQTMAAFGVRYFLNALGCKLVFYLHRVGRGVSIGTTCLLSVFQVITVSSRKSRWAKLKEKAPKHVGFSVLLCWIVCMLVNIIFPMYVTGKWNYTNITVNEDLGYCSGGGNNKIAQTLRAMLLSFPDVLCLGLMLWVSSSMVCILHRHKQRVQHIDRSNLSPRASPENRATQSILILVSTFVSSYTLSCLFQVCMALLDNPNSLLVNTSALMSVCFPTLSPFVLMSCDPSVYRFCFAWKR | increase | 0.37 |

— patent publication US20250353895A1, “METHOD FOR ANALYZING G-PROTEIN CONJUGATED RECEPTOR” (Kao Corporation, priority 2022, published 2025)
